Data from publication PMC3901689, “Leptin-Induced Endothelium-Dependent Vasorelaxation of Peripheral Arteries in Lean and Obese Rats: Role of Nitric Oxide and Hydrogen Sulfide” (PLoS ONE, 2014).
These are yes or no findings as the source states them, for the method shown. Tags and fused reporters may be left off the sequences shown.

Target: super active rat leptin antagonist (D23L/L39A/D40A/F41A mutant), non-pegylated (rat) (UniProt P50596)
Experiment: SEC; analytical Superdex 75 column pre-equilibrated with TN buffer, pH 8, native conditions; both purified

B1: super active rat leptin antagonist (D23L/L39A/D40A/F41A mutant), non-pegylated (ligand)
chain: AVPIHKVQDDTKTLIKTIVTRINLISHTQSVSARQRVTGAAAIPGLHPILSLSKMDQTLAVYQQILTSLPSQNVLQIAHDLENLRDLLHLLAFSKSCSLPQTRGLQKPESLDGVLEASLYSTEVVALSRLQGSLQDILQQLDLSPEC
notes: extra Ala left at the N-terminus from an extra Met-Ala (Met is cleaved by the bacteria); leptin, rat; about 16 kDa by SDS-PAGE; also called SRLA
B1 was tested, and the binding was “no binding”.
